These are yes or no findings as the source states them, for the method shown. In cells and extracts the contact can be indirect. Some entries that bind do so weakly or less than the wild type.
Target: Rho guanine nucleotide exchange factor (RGNEF) fused to the C-terminal half of ubiquitin and the RUra3 reporter (human) (UniProt Q8N1W1)
Assay: split reporter; directed split-ubiquitin assay in yeast: RGNEF-CUb-RUra3 co-expressed with NUb (I/A/G variants) fusions; read by growth on plates lacking uracil and on 5-FOA plates, 500 µM CuSO4

The chains behind the UniProt entries cited, without tags or fusion partners.
UniProt Q8N1W1: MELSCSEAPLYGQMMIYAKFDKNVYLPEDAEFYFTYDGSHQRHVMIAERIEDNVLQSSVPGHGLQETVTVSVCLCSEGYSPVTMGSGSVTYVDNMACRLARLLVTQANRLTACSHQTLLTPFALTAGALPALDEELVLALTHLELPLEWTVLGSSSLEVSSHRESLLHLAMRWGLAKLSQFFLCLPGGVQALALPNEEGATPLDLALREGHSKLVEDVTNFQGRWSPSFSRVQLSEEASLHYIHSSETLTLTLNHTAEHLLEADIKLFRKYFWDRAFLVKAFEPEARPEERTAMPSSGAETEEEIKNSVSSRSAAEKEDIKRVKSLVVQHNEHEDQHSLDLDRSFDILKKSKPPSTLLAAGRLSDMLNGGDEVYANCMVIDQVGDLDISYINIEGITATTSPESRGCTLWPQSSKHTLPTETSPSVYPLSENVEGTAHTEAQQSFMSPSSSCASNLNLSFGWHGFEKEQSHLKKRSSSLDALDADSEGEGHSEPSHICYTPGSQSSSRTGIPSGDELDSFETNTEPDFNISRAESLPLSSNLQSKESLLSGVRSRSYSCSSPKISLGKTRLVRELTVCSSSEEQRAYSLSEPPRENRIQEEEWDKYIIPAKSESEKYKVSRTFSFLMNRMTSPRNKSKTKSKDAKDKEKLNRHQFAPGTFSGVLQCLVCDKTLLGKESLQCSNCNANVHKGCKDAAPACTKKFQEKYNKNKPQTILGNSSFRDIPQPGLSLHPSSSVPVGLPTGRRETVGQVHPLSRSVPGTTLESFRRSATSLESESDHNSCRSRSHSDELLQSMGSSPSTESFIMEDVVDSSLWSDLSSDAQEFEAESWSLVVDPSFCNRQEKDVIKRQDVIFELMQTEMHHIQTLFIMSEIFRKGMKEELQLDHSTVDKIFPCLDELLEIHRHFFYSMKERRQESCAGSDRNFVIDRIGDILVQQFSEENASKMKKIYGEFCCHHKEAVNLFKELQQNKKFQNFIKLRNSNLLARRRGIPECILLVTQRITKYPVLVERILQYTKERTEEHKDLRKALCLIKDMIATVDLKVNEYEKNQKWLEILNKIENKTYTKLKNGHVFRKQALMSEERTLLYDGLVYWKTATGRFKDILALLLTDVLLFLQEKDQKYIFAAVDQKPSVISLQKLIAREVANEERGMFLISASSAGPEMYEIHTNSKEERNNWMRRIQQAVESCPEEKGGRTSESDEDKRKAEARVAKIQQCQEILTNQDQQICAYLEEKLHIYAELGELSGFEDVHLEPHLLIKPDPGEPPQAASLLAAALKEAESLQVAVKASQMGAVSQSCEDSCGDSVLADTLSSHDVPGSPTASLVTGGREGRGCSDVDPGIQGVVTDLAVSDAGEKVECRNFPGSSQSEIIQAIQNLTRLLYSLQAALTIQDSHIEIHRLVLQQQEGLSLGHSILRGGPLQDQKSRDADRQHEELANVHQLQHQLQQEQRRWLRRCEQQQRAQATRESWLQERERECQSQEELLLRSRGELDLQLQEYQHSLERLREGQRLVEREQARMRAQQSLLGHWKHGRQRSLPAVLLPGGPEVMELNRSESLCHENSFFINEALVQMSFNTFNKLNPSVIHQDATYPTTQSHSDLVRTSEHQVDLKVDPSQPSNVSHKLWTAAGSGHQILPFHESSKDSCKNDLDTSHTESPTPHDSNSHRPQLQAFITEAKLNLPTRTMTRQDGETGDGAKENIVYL

Substance: Rho guanine nucleotide exchange factor (RGNEF) fused to the C-terminal half of ubiquitin and the RUra3 reporter (from UniProt Q8N1W1 1-1705)
- binding: binds

Source: publication PMC7460592
